At least one structure is not confirmed: it was looked up by name or label, or the drawing left a doubt.
Key:
[1] = tested on: HMGCR(12-13) transcript; assay: HMGCR gene expression by real time PCR in immortalized lymphocyte cell lines, exons 12 to 13 assay; assay type: cell-based, human; conditions: 14.5 μM vs 1.8 μM simvastatin, 24 hours; differences not statistically significant
[2] = tested on: HMGCR(12-14) transcript; assay: HMGCR gene expression by real time PCR in immortalized lymphocyte cell lines, exons 12 to 14 assay; assay type: cell-based, human; conditions: 14.5 μM vs 1.8 μM simvastatin, 24 hours; differences not statistically significant

SMILES: CCC(C)(C)C(=O)O[C@H]1C[C@@H](C)C=C2C=C[C@H](C)[C@H](CC[C@@H]3C[C@@H](O)CC(=O)O3)[C@H]21 [simvastatin]
- up-regulation of HMGCR(12-13), higher dose compared to 1.8 μM dose [1]: up-regulated to a greater extent
- up-regulation of HMGCR(12-14), higher dose compared to 1.8 μM dose [2]: up-regulated to a greater extent
